Oligonucleotides screened, 5′ to 3′:
T1: SAM-II riboswitch RNA pseudoknot, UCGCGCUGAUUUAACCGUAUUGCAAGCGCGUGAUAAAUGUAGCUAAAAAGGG. Hit rate about 1% of about 21,000 compounds.
T2: TPP riboswitch RNA three-way junction, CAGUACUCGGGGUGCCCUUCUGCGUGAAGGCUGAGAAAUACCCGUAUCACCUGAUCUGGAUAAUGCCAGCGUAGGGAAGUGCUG. Hit rate about 0.7% of about 24,000 compounds.
T3: PreQ1 riboswitch RNA pseudoknot, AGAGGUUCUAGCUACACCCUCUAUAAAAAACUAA. From B. subtilis. Hit rate about 0.7% of about 24,000 compounds.

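The test is a small-molecule microarray: each compound is printed twice on a reactive slide, and binding shows as fluorescence of the labelled oligonucleotide after washing. The data file lists only calls. An earlier report of the laboratory on the PreQ1, TPP and SAM-II riboswitches (doi:10.1038/s41467-019-09493-3) used 1 µM RNA for 2 h and required a mean Z-score above 3 (spot signal-to-noise against the whole library), a score well above that on a control array, and duplicate spots agreeing (coefficient of variation under 100); it then also set aside compounds that hit other targets, which this list keeps. The cut-offs behind this list may differ. A missing hit is not proof of no binding, and a hit is not a measured affinity.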
Key: Y = hit, N = tested without a hit.
This is an unselected part of the compounds tested.
A dash means that no call is listed here.

| # | structure | T1 | T2 | T3 |
|---|---|---|---|---|
| 1 | `Cc1ccc2cc(-c3noc(C)n3)c(Nc3ccc(Cl)cc3)nc2c1` | - | N | N |
| 2 | `CCN(CCn1cccn1)C[C@H]1CC[C@@H](N)CC1` | N | N | N |
| 3 | `Cc1ccccc1-c1noc(-c2cccnc2NC2CCCCC2)n1` | - | N | N |
| 4 | `Cc1nc(CN)cc(N2CCC(O)(c3cccc(C(F)(F)F)c3)CC2)n1` | N | N | N |
| 5 | `Nc1c[nH]nc1C(=O)O` | N | N | N |
| 6 | `O=C(N[C@H]1CN2CCC1CC2)c1ccc(Cl)cc1` | N | N | N |
| 7 | `COC(=O)c1c(N)n(-c2ccc(F)cc2)c2nc3ccccc3nc12` | N | N | N |
| 8 | `CCNc1nc(C)cc(N2CCN(S(=O)(=O)c3ccc(OC)c(OC)c3)CC2)n1` | - | N | N |
| 9 | `Cc1[nH]nc2ccc(-c3cncc(OC[C@@H](N)Cc4c[nH]c5ccccc45)c3)cc12` | N | N | N |
| 10 | `Cn1c(=O)c2c(nc(NCCCO)n2Cc2cccc(Cl)c2)n(C)c1=O` | N | N | N |
| 11 | `COc1ccc2c(c1)OC(C)(C)CC2NC(=O)Cn1nc(C)cc1N` (stereo not drawn) | N | N | N |
| 12 | `O=C(Nc1ccccc1-c1cn2c(CN3CCNCC3)csc2n1)c1cnc2ccccc2n1` | N | N | N |
| 13 | `Cc1ncc([N+](=O)[O-])n1CCO` | N | N | N |
| 14 | `CC[C@H](NC(C)C)[C@H](O)c1ccc(O)c2[nH]c(=O)ccc12` | N | N | N |
| 15 | `O=C(NC[C@@H]1C[C@H](F)CN1)Nc1ccc(OCCc2ccccn2)cc1` | N | N | N |
| 16 | `Cc1nccn1-c1ccc(CNCC2(O)CCCNC2)cc1` (stereo not drawn) | N | N | N |
| 17 | `N[C@H]1CN(C(=O)c2ccc(N3CCCCC3)cc2)C[C@@H]1C1CC1` | N | N | N |
| 18 | `O=C1CC(c2nc3ccccc3n2CC(O)COc2ccccc2Cl)CN1c1cccc(F)c1` (stereo not drawn) | - | N | N |
| 19 | `CCOC(=O)C1=C(N)OC2=C(C(=O)CC(C)(C)C2)C12C(=O)Nc1ccccc12` (stereo not drawn) | N | N | N |
| 20 | `Nc1nc2n(n1)[C@@H](c1cccc(Cl)c1)C[C@@H](c1ccccc1)N2` | N | N | N |
| 21 | `Cc1cccc(NCc2nc3nc(C)cc(C)n3n2)c1` | - | N | N |
| 22 | `Cc1ccccc1SCC(=O)N1CCC2(CC1)c1ccccc1[C@@H](N)[C@@H]2O` | N | N | N |
| 23 | `Cc1ccc(OCC(O)CN2CCN(CCN3C(=O)c4cccc5cccc(c45)C3=O)CC2)c(C)c1` (stereo not drawn) | N | N | N |
| 24 | `Cc1nn(Cc2ccccc2Cl)c(C)c1CN(C)CC(O)COc1ccc(Cl)cc1` (stereo not drawn) | N | N | N |
| 25 | `COc1ccc(C2CC(=O)C3=C(C2)Nc2ccccc2NC3c2ccc(OC(=O)c3cccs3)c(OC)c2)cc1` (stereo not drawn) | N | N | N |
| 26 | `CN1c2ccccc2C2=C(C(c3ccccc3Br)C(C#N)=C(N)O2)S1(=O)=O` (stereo not drawn) | - | N | N |
| 27 | `O=C(NCCO)c1nn(-c2ccccc2)nc1CO` | - | N | N |
| 28 | `Cc1ccsc1C1C(C#N)=C(N)OC2=C1C(=O)CC(C)(C)C2` (stereo not drawn) | N | N | N |
| 29 | `CN(Cc1cnc(N)nc1)Cc1nnc(-c2ccccc2)o1` | N | N | N |
| 30 | `CCOc1ccc(NC(=O)Nc2cc(C(C)C)c(O)cc2C)cc1` | N | N | N |
| 31 | `CCOc1ccc(-c2noc(-c3nnn(-c4ccccc4)c3N)n2)cc1` | - | N | N |
| 32 | `O=[N+]([O-])c1ccc(Nc2ccccc2-c2ccccc2)c2nonc12` | N | N | N |
| 33 | `CCC(O)Cn1nc(-c2csc(C)n2)nc1COC` (stereo not drawn) | N | N | N |
| 34 | `CCN(C(=O)c1cc(C)c(C)[nH]c1=O)[C@H]1COC[C@@H]1O` | N | N | N |
| 35 | `CCNc1nc(C)cc(N2CCN(S(=O)(=O)c3cc(C)c(OC)cc3C)CC2)n1` | - | N | N |
| 36 | `CCC(CO)N(CCCSC)Cc1ccc(F)cc1` (stereo not drawn) | N | N | N |
| 37 | `CCn1c(C2CCCNC2)nn(CCn2cccc2)c1=O` (stereo not drawn) | N | N | N |
| 38 | `Cc1cnc(Nc2ccc(N3CCN(C)CC3)cc2)nc1Nc1cccc(S(=O)(=O)NC(C)(C)C)c1` | N | N | N |
| 39 | `O=c1cc(CN2CC[C@H]3NCCC[C@]3(CO)C2)[nH]c2c(F)cccc12` | N | N | N |
| 40 | `CC1=C[C@@H]2[C@@H]([C@@H](O)C[C@@]3(C)[C@H]2C[C@@H](C)[C@]3(O)C(=O)CO)[C@@]2(C)Cc3cnn(-c4ccccc4)c3C=C12` | N | N | N |
| 41 | `CCOC(=O)c1cnn(-c2cc(C)nc3nc(C(F)(F)F)nn23)c1N` | - | N | N |
| 42 | `CC(C)C[C@H](NC(=O)[C@H](Cc1ccccc1)NC(=O)c1cnccn1)B(O)O` | N | N | N |
| 43 | `Cc1nc(-c2cc3cccc(C)c3nc2NCc2ccccc2C)no1` | - | N | N |
| 44 | `CC[C@H]1COCCN1C(=O)Cn1nnnc1N` | N | N | N |
| 45 | `COC(=O)C1=CCCN(C)C1` | N | N | N |
| 46 | `O=c1n(Cc2noc(C3CC3)n2)nc(C2CCNCC2)n1-c1ccccc1` | N | N | N |
| 47 | `CN(CCn1ccnc1-c1ccc(CO)o1)S(C)(=O)=O` | N | N | N |
| 48 | `CC(C)=CCCC(C)=CCNCCNC1[C@H]2C[C@@H]3C[C@@H](C[C@H]1C3)C2` (stereo partly drawn) | N | N | N |
| 49 | `Cc1nn2c(NCCCn3ccnc3)c3c(nc2c1-c1ccccc1)CCC3` | - | N | N |
| 50 | `Cc1ccccc1Nc1nc2ccc(Cl)cc2n2cnnc12` | - | N | N |
| 51 | `CC(C)CNC(=O)c1sc(=S)n(-c2ccc(Cl)cc2)c1N` | N | N | N |
| 52 | `O=C(Nc1sc2c(c1CO)CCCC2)c1ccccc1` | N | N | N |
| 53 | `Cc1cc(=O)[nH]c(NCCNC2CCC3(CCNCC3)CC2)n1` | N | N | N |
| 54 | `CCOC(=O)c1ccc(Nc2c(-c3cccc(Br)c3)nc3cnccn23)cc1` | - | N | N |
| 55 | `CCCOC(=O)c1cccc(Nc2nc(-c3cccnc3)nc3ccccc23)c1` | N | N | N |
| 56 | `Cn1c(=O)c2c(ncn2CC(O)CN2CCCCC2)n(C)c1=O` (stereo not drawn) | N | N | N |
| 57 | `Cn1c(=O)c(NCCO)c2c3c(cccc31)C(=O)c1ccccc1-2` | N | N | N |
| 58 | `Cn1c(=O)c2c(nc(NCCCN3CCOCC3)n2C)n(C)c1=O` | N | N | N |
| 59 | `COc1cc2c(Oc3ccc(-c4cnc(Nc5ccc(F)cc5)n(C)c4=O)cc3F)ccnc2cc1OCCCN1CCOCC1` | N | N | N |
| 60 | `Cc1ccc(-c2cn([C@@H]3c4ccccc4C4(CCNCC4)[C@H]3O)nn2)cc1` | N | N | N |
| 61 | `Cc1c(C)n(CC(O)CNc2ccc(Br)cc2)c2ccccc12.O=C(O)C(=O)O` (stereo not drawn) | N | N | N |

5 of the entries, repeated:

structure	T1	T2	T3
COc1ccc2c(c1)OC(C)(C)CC2NC(=O)Cn1nc(C)cc1N (stereo not drawn)	N	N	N
Nc1c[nH]nc1C(=O)O	N	N	N
CN1c2ccccc2C2=C(C(c3ccccc3Br)C(C#N)=C(N)O2)S1(=O)=O (stereo not drawn)	-	N	N
CCNc1nc(C)cc(N2CCN(S(=O)(=O)c3ccc(OC)c(OC)c3)CC2)n1	-	N	N
O=c1cc(CN2CC[C@H]3NCCC[C@]3(CO)C2)[nH]c2c(F)cccc12	N	N	N

From ROBIN, a set of small-molecule microarray screens (doi:10.1002/anie.202211358).